Data published in US20070172957A1, “Methods of identifying anti-inflammatory macrolides” (TAISHO PHARMACEUTICAL CO., LTD., priority 2004, published 2007).
For at least one compound, name, drawing or mass did not settle the structure.

Test system: A549 cells
Assay: A549 microarray comparing macrolides with arachidonic acid pathway inhibitors, with IL-1β stimulation (Appendix C, Tables 6-9), and correlation analysis
Type: cell-based
Text: One inhibitor, triacsin C, acts on AA biosynthesis by inhibiting arachidonyl CoA synthetases, blocking the incorporation of free AA into phospholipids. Triacsin C is reasonably specific for AA compared to other fatty acids. However, triacsin C structurally resembles AA so it also may interfere with other steps in the AA pathway. Indomethacin is an inhibitor of COX1 and COX2 enzyme activities and therefore specifically blocks metabolism of AA into prostaglandins. […] It inhibits transcription of PLA2, and transcriptionally and post-transcriptionally regulates COX1 and COX2 activities. Dexamethasone has additional effects unrelated to AA through binding with the glucocorticoid receptor to glucocortcoid response elements.
A549 cells were pre-incubated overnight (17 hours) with macrolides (10 μM FMA-9045, 50 μM clarithromycin, 50 μM roxithromycin, 50 μM josamycin) and 15 μM triacsin C, and pre-incubated 2 hours with 100 nM indomethacin and 100 nM dexamethasone. […] The resulting microarray data (Appendix C) were analyzed using the methods described in the Examples above. […]
Quantitative analysis was done to determine how well the responses to the different AA pathway inhibitors correlated. […] Correlation between experiments, across all spots showing good detection, was assessed by cosine vector angle to generate the data shown in Tables 7-9. […]

**Q.** For `C[C@@H]1C[C@H]2[C@@H]3CCC4=CC(=O)C=C[C@]4(C)[C@@]3(F)[C@@H](O)C[C@]2(C)[C@@]1(O)C(=O)CO` [dexamethasone], which FADS1 expression is on record?
**A.** not
